Assay results from patent US20170335314.

Test system: biotinylated anti-BRD7 Fab fragment (murine IgG1 isotype + bFab) (Mus musculus)
Assay: pull-down
Details: purified native protein, protein details: biotinylated, ThermoFisher

Question: Does “CATCTCCACCTCCATAACCCACGGACGGGCGTCTAGAGAAGTAGGCTGAAATATCGTGGCGAGAACGAGCTGTGTCCTGAAGAAA [aptamer 229 (10AptL3)]” bind (streptavidin bead pulldown, PBSM, single-stranded DNA)?
Answer: binds

Question: Does “CATCTCCACCTCCATAACCCACGGACGGGCGTCTAGAGAAGTAGGCTGAAATATCGTGGCGAGAACGAGCTGTGTCCTGAAGAAACCGGCTGCGC / CGACGCGGGCGCAAAGACATCTGGACACGCCACTAAGTGGAGGTGATCTGTACTTCATTTATGAGATCGCGGCGAGGAGAAGGAGACTTAGAGGC [stem-loop linked binary 229-3'-Ext1/228-5'-Ext1]” bind (templated click product on bFab-bound binary, folded or branched DNA)?
Answer: binds

Question: Does “CATCTCCACCTCCATAACCCACGGACGGGCGTCTAGAGAAGTAGGCTGAAATATCGTGGCGAGAACGAGCTGTGTCCTGAAGAAACCGGCTGCGC [aptamer 229-3'-Ext1]” bind (binding reduced somewhat versus 229, PBSM, single-stranded DNA, variant of aptamer 229 (10AptL3))?
Answer: binds more weakly

Question: Does “CATCTCCACCTCCATAACCCACGGACGGGCGTCTAGAGAAGTAGGCTGAAATATCGTGGCGAGAACGAGCTGTGTCCTGAAGAAAGCAAAGACATCTGGACACGCCACTAAGTGGAGGTGATCTGTACTTCATTTATGAGATCGCGGCGAGGAGAAGGAGACTTAGAGGC [binary aptamer 229-228 (ligated, 170 nt)]” bind (pre-ligated binary, splint-ligated form and purified splint-free form both bind, single-stranded DNA)?
Answer: binds

Question: Does “CGACGCGGGCGCAAAGACATCTGGACACGCCACTAAGTGGAGGTGATCTGTACTTCATTTATGAGATCGCGGCGAGGAGAAGGAGACTTAGAGGC [aptamer 228-5'-Ext1]” bind (little affected by appended tag, PBSM, single-stranded DNA, variant of aptamer 228 (10AptR1))?
Answer: binds

Question: Does “GCAAAGACATCTGGACACGCCACTTATAGTCTACGTGAAGCACTGCGCTGGAACAGCCTAAAAAAGGAGAAGGAGACTTAGAGGC [aptamer 136 (unselected control R-aptamer)]” bind (unselected control, supernatant not depleted, PBSM, single-stranded DNA)?
Answer: no binding

For at least one entry, the source does not settle the construct or the ends of the probe. Negatives hold for the conditions tested. A weaker result is weaker than the reference pair of the same experiment.
